Measured values from PMC7046147.
A negative result means that nothing was seen under these conditions.

Protein sequences, listed by entry. Tags and fused reporters are not part of them. Residues count along the entry.
UniProt P26367, 4-83: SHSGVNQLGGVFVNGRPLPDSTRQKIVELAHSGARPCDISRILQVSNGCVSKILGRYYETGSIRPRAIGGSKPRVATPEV
UniProt P26367, 84-136: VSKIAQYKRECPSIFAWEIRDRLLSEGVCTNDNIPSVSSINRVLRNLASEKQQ

How the values were obtained:
Assay in all cases: ITC
[1] = target: PAX6 PAI subdomain with linker (human) (UniProt P26367); settings: ITC (iTC200) at 25 °C in buffer C (composition not given; protein stored in 25 mM Hepes pH 7.5, 150 mM NaCl, 5 mM b-ME); 20 uM protein in cell, 200 uM DNA in syringe; recombinant protein; residues 4-83
[2] = target: PAX6 RED subdomain (human) (UniProt P26367); settings: ITC (iTC200) at 25 °C in buffer C (composition not given; protein stored in 25 mM Hepes pH 7.5, 150 mM NaCl, 5 mM b-ME); 20 uM protein in cell, 200 uM DNA in syringe; recombinant protein; residues 84-136
PAX6 V84Afs*8 (human) = PAX6 V84Afs*8 (human) (UniProt P26367); settings: ITC (iTC200) at 25 °C in buffer C (composition not given; protein stored in 25 mM Hepes pH 7.5, 150 mM NaCl, 5 mM b-ME); 20 uM protein in cell, 200 uM DNA in syringe; recombinant protein; protein details: N-terminal His6 removed by TEV

Measured: binding result

AAGCATTTTCACGCATGAGTGCACAG / TTCTGTGCACTCATGCGTGAAAATGC [P6B]
no binding: all assays above
